In publication PMC3219604 one finds binding signal (binding score (0-5)) data, which are given here for one sequence.

Where a chain is given by its changes, count along the chain named. For at least one entry, the source does not settle the construct or the ends of the probe. For part of these data: Where a protein sequence is shown, tags need not be part of it.

Common to all, as to assay: EMSA
The target of series [1] is T1, OrfAB-GFP GMF7 N94D N109D (UniProt P51026).
T1 sequence (looked up, limits assumed): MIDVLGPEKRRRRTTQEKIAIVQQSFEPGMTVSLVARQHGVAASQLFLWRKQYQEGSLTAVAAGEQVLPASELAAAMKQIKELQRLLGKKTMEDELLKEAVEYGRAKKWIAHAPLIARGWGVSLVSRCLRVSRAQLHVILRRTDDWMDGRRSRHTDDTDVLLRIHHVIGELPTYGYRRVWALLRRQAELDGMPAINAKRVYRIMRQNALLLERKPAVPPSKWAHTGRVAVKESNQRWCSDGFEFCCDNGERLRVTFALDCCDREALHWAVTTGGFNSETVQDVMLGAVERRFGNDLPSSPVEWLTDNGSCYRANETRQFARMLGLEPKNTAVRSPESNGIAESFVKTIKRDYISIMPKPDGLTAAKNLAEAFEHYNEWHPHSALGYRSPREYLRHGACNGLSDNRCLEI
Particulars: panel (50- or 87-mer) not stated in material; 20 mM Tris-Cl pH 8.0, 1 mM EDTA, 5 ug/mL calf thymus DNA, 10 nM DNA, 0.11-0.13 uM protein, 30 min at 20 C; gels at 4 C; recombinant protein; protein details: 6xHis, C-terminal GFPuv; label: 5'-32P upper strand.

Series [2] deals with T2, OrfAB-GFP GMF28 S44N S59N (UniProt P51026).
T2 sequence (looked up, limits assumed): T1 sequence (looked up, limits assumed) with S44N, D94N
Particulars: 20 mM Tris-Cl pH 8.0, 1 mM EDTA, 5 ug/mL calf thymus DNA, 10 nM DNA, 0.11-0.13 uM protein, 30 min at 20 C; gels at 4 C; recombinant protein; protein details: 6xHis, C-terminal GFPuv; label: 5'-32P upper strand; counted as no binding.

Series [3] addresses T3, OrfAB-GFP GMF71 E391K E406K (UniProt P51026).
T3 sequence (looked up, limits assumed): T1 sequence (looked up, limits assumed) with D94N, E391K
Particulars: 20 mM Tris-Cl pH 8.0, 1 mM EDTA, 5 ug/mL calf thymus DNA, 10 nM DNA, 0.11-0.13 uM protein, 30 min at 20 C; gels at 4 C; recombinant protein; protein details: 6xHis, C-terminal GFPuv; label: 5'-32P upper strand.

The target in series [4] is OrfAB-GFP GMF29 L58I L73I (UniProt P51026). Particulars: 20 mM Tris-Cl pH 8.0, 1 mM EDTA, 5 ug/mL calf thymus DNA, 10 nM DNA, 0.11-0.13 uM protein, 30 min at 20 C; gels at 4 C; recombinant protein; protein details: 6xHis, C-terminal GFPuv; label: 5'-32P upper strand; counted as no binding.
Series [5] has as its target T4, OrfAB-GFP GMF68 H267D H282D (UniProt P51026).
T4 sequence (looked up, limits assumed): T1 sequence (looked up, limits assumed) with D94N, H267D
Particulars: 20 mM Tris-Cl pH 8.0, 1 mM EDTA, 5 ug/mL calf thymus DNA, 10 nM DNA, 0.11-0.13 uM protein, 30 min at 20 C; gels at 4 C; recombinant protein; protein details: 6xHis, C-terminal GFPuv; label: 5'-32P upper strand.

Series [6] addresses T5, OrfAB-GFP GMF34 R13H R28H (UniProt P51026).
T5 sequence (looked up, limits assumed): T1 sequence (looked up, limits assumed) with R13H, D94N
Particulars: 20 mM Tris-Cl pH 8.0, 1 mM EDTA, 5 ug/mL calf thymus DNA, 10 nM DNA, 0.11-0.13 uM protein, 30 min at 20 C; gels at 4 C; recombinant protein; protein details: 6xHis, C-terminal GFPuv; label: 5'-32P upper strand; counted as no binding.

As for “GGATCCTTAAGTGATAACAGATGTCTGGAAATATAGGGGCAAATCCAGCG (double strand) [IRR 50-mer]”, the binding signal (binding score (0-5)) in series [1] worked out at 3; in series [2], 0; in series [3] it was 2.5; in series [4] it was 0; in series [5] it was 2.5; in series [6] it was 0.
